Data on one molecule can be found in patent US20240190999A1.

Chains of the proteins cited; added tags and fusions are not shown. Lines headed by an entry give the natural chain unless they say otherwise; changes in a name come on top.
UniProt Q12884: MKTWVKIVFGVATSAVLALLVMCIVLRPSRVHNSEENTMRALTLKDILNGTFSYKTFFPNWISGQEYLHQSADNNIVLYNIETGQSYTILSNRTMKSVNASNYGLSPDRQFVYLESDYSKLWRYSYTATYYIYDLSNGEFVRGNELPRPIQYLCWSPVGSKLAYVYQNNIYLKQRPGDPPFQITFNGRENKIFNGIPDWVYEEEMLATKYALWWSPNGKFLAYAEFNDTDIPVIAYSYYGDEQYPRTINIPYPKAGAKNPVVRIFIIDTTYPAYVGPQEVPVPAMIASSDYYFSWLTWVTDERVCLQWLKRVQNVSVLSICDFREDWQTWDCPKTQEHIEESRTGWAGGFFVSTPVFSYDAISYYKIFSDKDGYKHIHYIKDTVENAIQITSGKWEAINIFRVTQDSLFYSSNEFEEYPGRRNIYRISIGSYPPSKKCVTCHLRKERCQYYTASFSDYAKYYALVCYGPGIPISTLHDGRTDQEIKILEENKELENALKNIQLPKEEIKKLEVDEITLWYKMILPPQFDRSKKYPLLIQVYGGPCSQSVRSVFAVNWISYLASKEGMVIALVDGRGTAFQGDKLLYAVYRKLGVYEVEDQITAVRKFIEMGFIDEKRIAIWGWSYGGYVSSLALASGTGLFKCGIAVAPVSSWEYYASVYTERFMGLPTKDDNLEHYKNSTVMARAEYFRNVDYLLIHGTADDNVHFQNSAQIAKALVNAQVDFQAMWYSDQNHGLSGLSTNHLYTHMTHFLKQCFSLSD
UniProt Q07011: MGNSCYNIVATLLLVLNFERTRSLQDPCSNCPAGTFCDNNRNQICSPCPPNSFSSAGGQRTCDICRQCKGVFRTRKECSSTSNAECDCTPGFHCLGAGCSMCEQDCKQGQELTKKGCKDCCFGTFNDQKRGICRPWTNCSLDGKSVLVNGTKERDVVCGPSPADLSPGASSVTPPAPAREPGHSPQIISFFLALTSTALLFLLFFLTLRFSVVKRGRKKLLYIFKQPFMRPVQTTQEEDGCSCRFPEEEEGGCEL

Experiment [1] has as its target human fibroblast activation protein (hFAP) (human) (UniProt Q12884). Briefly: SPR (ProteOn XPR36).
Experiment [2] deals with biotinylated human 4-1BB (bio.h4-1BB) (human) (UniProt Q07011). Nature of the experiment: SPR (ProteOn XPR36).

No constants are given. Whether binding was seen depends on the method and setting. Some results given as binding are weak or reduced against the parent protein; the word gives no strength.

B1: bispecific construct #45 (designed binder)
chain: MRGSHHHHHHGSDLGEKLLVAALYGQDDEVRILLAAGADVNAKDQWGLTPLHKAALQGHLEIVEVLLKAGADVNAKDERGHTPLHWAARFGHLEIVEVLLKAGADVNAQDQKGYTPADLAALWGHEDIAEVLQKAAGSPTPTPTTPTPTPTTPTPTPTGSDLGDKLLHAAYYGQDDEVRILLAAGADVNAKDTQGLTPLHLAAAIGHLEIVEVLLKAGADVNAKDAYGETPLHLVASRGHLEIVEVLLKAGADVNAQDYSGRTPADLAAEYGHEDIAEVLQKLN
Turning to B1, the binding entry in experiment [1] and in experiment [2] was “binds” throughout.
